These are yes or no findings as the source states them, for the method shown. Some entries that bind do so weakly or less than the wild type.
How the values were obtained:
[1] = molecular target: Cyno RI (cynomolgus monkey) (UniProt Q8SPW5); assay: SPR, Fc captured, receptor as analyte, relative to wild type Fc
[2] = molecular target: Cyno RI (cynomolgus monkey) (UniProt Q8SPW5); assay: SPR, Fc captured, receptor as analyte

binding [1] | binding [2] | Substance
binds | – | TSC 1004 (from UniProt P0DOX5 218-448)
binds | – | TSC 1006 (from UniProt P0DOX5 218-448)
– | binds | Wild type IgG1 Fc (from UniProt P01857 99-329)

Reference: US20220242962A1
